Like-named read-outs stand apart in the source and are kept apart here. Some entries share one result that the patent states for a list of compounds.
Experiments:
[1] = target: T1, purified recombinant Cdc25-C enzyme (MBP-Cdc25C protein) (Homo sapiens, UniProt P30307); assay: Phosphatase activity of the purified recombinant Cdc25C enzyme (OMFP dephosphorylation, fluorescence); format: biochemical; settings: OMFP 500 μM, 4 hours at 30° C.
T1 construct: made in house
T1 sequence (P30307 1-473): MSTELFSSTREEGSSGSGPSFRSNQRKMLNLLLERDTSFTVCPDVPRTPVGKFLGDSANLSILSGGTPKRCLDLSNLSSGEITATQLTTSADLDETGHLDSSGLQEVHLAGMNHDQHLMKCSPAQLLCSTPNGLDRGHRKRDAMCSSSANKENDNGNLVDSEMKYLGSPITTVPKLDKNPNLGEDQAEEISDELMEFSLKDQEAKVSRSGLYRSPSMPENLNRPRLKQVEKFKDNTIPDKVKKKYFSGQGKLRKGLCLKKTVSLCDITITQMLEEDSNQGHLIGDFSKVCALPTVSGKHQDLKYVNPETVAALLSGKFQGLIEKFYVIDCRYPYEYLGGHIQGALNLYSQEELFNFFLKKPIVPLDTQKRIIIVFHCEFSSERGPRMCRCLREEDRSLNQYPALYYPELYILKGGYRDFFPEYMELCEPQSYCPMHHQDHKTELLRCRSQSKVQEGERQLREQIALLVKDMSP
Outline: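 MBP-Cdc25C fusion protein in 50 mM Tris-HCl pH 8.2, 50 mM NaCl, 1 mM DTT, 20% glycerol; reaction started with 500 μM OMFP (final). Compounds tested at decreasing concentrations from 40 μM; 4 h at 30 °C, OMF fluorescence read at 475 nm. IC50 from three independent experiments by linear regression over the linear part of the sigmoid.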

[2] = system: DU145 (human prostate cancer cells); assay: Anti-proliferative activity on DU-145 cell line (WST1 colorimetric test); format: cell-based; settings: 96 hours treatment
Experimental: (§1) By way of an example, the effect of treating two human cell lines Mia-Paca2 and DU145 with the compounds of the examples described hereinbefore will be studied. The cell lines DU145 (human prostate cancer cells) and Mia-PaCa2 (human pancreas cancer cells) were obtained from the American Tissue Culture Collection (Rockville, Md., USA). A 96-well plate was inoculated on day 0 with cells placed in 80 μl of Dulbecco's modified Eagle's medium (Gibco-Brl, Cergy-Pontoise, France) with 10% heat-inactivated foetal calf serum (Gibco-Brl, Cergy-Pontoise, France), 50000 units/1 of penicillin and 50 mg/l of streptomycin (Gibco-Brl, Cergy-Pontoise, France), and 2 mM of glutamine (Gibco-Brl, Cergy-Pontoise, France). The cells were treated on day 1 with increasing concentrations of each test compound up to 10 μM for 96 hours. At the end of this period, cell proliferation is quantified by means of a colorimetric test based on cleavage of the tetrazolium salt WST1 by the mitochondrial dehydrogenases in the viable cells, resulting in formation of formazan (Boehringer Mannheim, Meylan, France). These tests are performed in duplicate with 8 determinations per concentration tested. For each compound to be tested, the values within the linear part of the sigmoid curve were subjected to linear regression analysis and used to estimate the IC50 inhibitory concentration. The products are solubilised in dimethylsulfoxide (DMSO) at a concentration of 10^−2 M and used in culture with a final DMSO concentration of 0.1%.

[3] = system: Mia-PaCa2 (human pancreas cancer cells); assay: Anti-proliferative activity on Mia-Paca2 cell line (WST1 colorimetric test); format: cell-based; settings: 96 hours treatment
Experimental: as §1

[4] = read-out: IC50 on the proliferation of the DU-145 cell line
[5] = read-out: IC50 on proliferation of the Mia-Paca2 cell line

Row | Compound | IC50 [1] | also measured
1 | CN(CCNC(=S)Nc1ccc([N+](=O)[O-])cc1)CCNc1cc(N2CCCC2)nc(N2CCCC2)n1 [Example 43, N-{2-[{2-[(2,6-dipyrrolidin-1-ylpyrimidin-4-yl)amino]ethyl}(methyl)amino]ethyl}-N′-(4-nitrophenyl)thiourea] | ≤ 10 µM | IC50 ([2]; listed as example 43, read-out: IC50 on the proliferation of the DU-145 cell line): ≤ 5 µM; IC50 [2, 4]: ≤ 1 µM
2 | CN(CCNC(=S)Nc1ccc(Cl)cc1)CCNc1cc(N2CCCC2)nc(N2CCCC2)n1 [Example 22, N-(4-chlorophenyl)-N′-{2-[{2-[(2,6-dipyrrolidin-1-ylpyrimidin-4-yl)amino]ethyl}(methyl)amino]ethyl}thiourea] | ≤ 10 µM | IC50 ([2]; listed as example 22, read-out: IC50 on the proliferation of the DU-145 cell line): ≤ 5 µM; IC50 [2, 4]: ≤ 1 µM
3 | CN(CCNC(=S)Nc1cccc([N+](=O)[O-])c1)CCNc1cc(N2CCCC2)nc(N2CCCC2)n1 [Example 49, N-{2-[{2-[(2,6-dipyrrolidin-1-ylpyrimidin-4-yl)amino]ethyl}(methyl)amino]ethyl}-N′-(3-nitrophenyl)thiourea] | ≤ 10 µM | IC50 ([3]; listed as example 49, read-out: IC50 on proliferation of the Mia-Paca2 cell line): ≤ 5 µM; IC50 [3, 5]: ≤ 1 µM; IC50 ([2]; listed as example 49, read-out: IC50 on the proliferation of the DU-145 cell line): ≤ 5 µM; IC50 [2, 4]: ≤ 1 µM
4 | CN(CCNC(=S)Nc1ccc(Sc2ncc(C(F)(F)F)cc2Cl)cc1)CCNc1cc(N2CCCC2)nc(N2CCCC2)n1 [Example 52, N-(4-{[3-chloro-5-(trifluoromethyl)pyridin-2-yl]thio}phenyl)-N′-{2-[{2-[(2,6-dipyrrolidin-1-ylpyrimidin-4-yl)amino]ethyl}(methyl)amino]ethyl}thiourea] | ≤ 10 µM | IC50 ([3]; listed as example 52, read-out: IC50 on proliferation of the Mia-Paca2 cell line): ≤ 5 µM; IC50 [3, 5]: ≤ 1 µM; IC50 ([2]; listed as example 52, read-out: IC50 on the proliferation of the DU-145 cell line): ≤ 5 µM; IC50 [2, 4]: ≤ 1 µM
5 | O=C(NCCOCCNc1cc(N2CCCC2)nc(N2CCCC2)n1)Nc1ccc(Cl)c(C(F)(F)F)c1 [Example 20, N-[4-chloro-3-(trifluoromethyl)phenyl]-N′-(2-{2-[(2,6-dipyrrolidin-1-ylpyrimidin-4-yl)amino]ethoxy}ethyl)urea] | ≤ 10 µM | IC50 ([3]; listed as example 20, read-out: IC50 on proliferation of the Mia-Paca2 cell line): ≤ 5 µM; IC50 [3, 5]: ≤ 1 µM; IC50 ([2]; listed as example 20, read-out: IC50 on the proliferation of the DU-145 cell line): ≤ 5 µM; IC50 [2, 4]: ≤ 1 µM
6 | CSc1ccc(NC(=S)NCCN(C)CCNc2cc(N3CCCC3)nc(N3CCCC3)n2)cc1 [Example 51, N-{2-[{2-[(2,6-dipyrrolidin-1-ylpyrimidin-4-yl)amino]ethyl}(methyl)amino]ethyl}-N′-[4-(methylthio)phenyl]thiourea] | ≤ 10 µM | IC50 ([3]; listed as example 51, read-out: IC50 on proliferation of the Mia-Paca2 cell line): ≤ 5 µM; IC50 [3, 5]: ≤ 1 µM
7 | CN(CCN)CCNc1cc(N2CCCC2)nc(N2CCCC2)n1 [Example 1, N-{2-[(2,6-dipyrrolidin-1-ylpyrimidin-4-yl)amino]ethyl}-N-methylethane-1,2-diamine] | ≤ 10 µM | –
8 | CN(CCNc1cc(N2CCCC2)nc(N2CCCC2)n1)CCNS(=O)(=O)c1cccc(C(F)(F)F)c1 [Example 88, N-{2-[{2-[(2,6-dipyrrolidin-1-ylpyrimidin-4-yl)amino]ethyl}(methyl)amino]ethyl}-3-(trifluoromethyl)benzenesulfonamide] | ≤ 10 µM | –
9 | CN(CCNC(=O)NC1CCCC1)CCNc1cc(N2CCCC2)nc(N2CCCC2)n1 [Example 12, N-cyclopentyl-N′-{2-[{2-[(2,6-dipyrrolidin-1-ylpyrimidin-4-yl)amino]ethyl}(methyl)amino]ethyl}urea] | ≤ 10 µM | –
10 | CN(CCNC(=S)Nc1ccc(C(F)(F)F)cc1)CCNc1cc(N2CCCC2)nc(N2CCCC2)n1 [Example 25, N-{2-[{2-[(2,6-dipyrrolidin-1-ylpyrimidin-4-yl)amino]ethyl}(methyl)amino]ethyl}-N′-[4-(trifluoromethyl)phenyl]thiourea] | ≤ 10 µM | –
11 | CN(CCNC(=O)NC(C)(C)C)CCNc1cc(N2CCCC2)nc(N2CCCC2)n1 [Example 9, N-(tert-butyl)-N′-{2-[{2-[(2,6-dipyrrolidin-1-ylpyrimidin-4-yl)amino]ethyl}(methyl)amino]ethyl}urea] | ≤ 10 µM | –
12 | CN(CCNC(=O)Nc1cccs1)CCNc1cc(N2CCCC2)nc(N2CCCC2)n1 [Example 10, N-{2-[{2-[(2,6-dipyrrolidin-1-ylpyrimidin-4-yl)amino]ethyl}(methyl)amino]ethyl}-N′-2-thienylurea] | ≤ 10 µM | –
13 | NCCCCCNc1cc(N2CCCC2)nc(N2CCCC2)n1 [Example 4, N-(2,6-dipyrrolidin-1-ylpyrimidin-4-yl)pentane-1,5-diamine] | ≤ 10 µM | –
14 | CN(CCNC(=S)Nc1ccc(F)c(F)c1)CCNc1cc(N2CCCC2)nc(N2CCCC2)n1 [Example 67, N-(3,4-difluorophenyl)-N′-{2-[{2-[(2,6-dipyrrolidin-1-ylpyrimidin-4-yl)amino]ethyl}(methyl)amino]ethyl}thiourea] | ≤ 10 µM | –
15 | Cc1noc(C)c1NC(=O)NCCN(C)CCNc1cc(N2CCCC2)nc(N2CCCC2)n1 [Example 13, N-(3,5-dimethylisoxazol-4-yl)-N′-{2-[{2-[(2,6-dipyrrolidin-1-ylpyrimidin-4-yl)amino]ethyl}(methyl)amino]ethyl}urea] | ≤ 10 µM | –
16 | COc1ccc(C(=O)NC(=S)NCCN(C)CCNc2cc(N3CCCC3)nc(N3CCCC3)n2)cc1 [Example 80, N-[({2-[{2-[(2,6-dipyrrolidin-1-ylpyrimidin-4-yl)amino]ethyl}(methyl)amino]ethyl}amino)carbonothioyl]-4-methoxybenzamide] | ≤ 10 µM | –
17 | CN(CCNC(=S)Nc1c(F)c(F)c(F)c(F)c1F)CCNc1cc(N2CCCC2)nc(N2CCCC2)n1 [Example 34, N-{2-[{2-[(2,6-dipyrrolidin-1-ylpyrimidin-4-yl)amino]ethyl}(methyl)amino]ethyl}-N′-(pentafluorophenyl)thiourea] | ≤ 10 µM | IC50 ([2]; listed as example 34, read-out: IC50 on the proliferation of the DU-145 cell line): ≤ 5 µM; IC50 [2, 4]: ≤ 1 µM
18 | CN(CCNC(=O)NCc1ccco1)CCNc1cc(N2CCCC2)nc(N2CCCC2)n1 [Example 14, N-{2-[{2-[(2,6-dipyrrolidin-1-ylpyrimidin-4-yl)amino]ethyl}(methyl)amino]ethyl}-N′-(2-furylmethyl)urea] | ≤ 10 µM | –
19 | CN(CCNC(=S)Nc1cc(F)cc(F)c1)CCNc1cc(N2CCCC2)nc(N2CCCC2)n1 [Example 41, N-(3,5-difluorophenyl)-N′-{2-[{2-[(2,6-dipyrrolidin-1-ylpyrimidin-4-yl)amino]ethyl}(methyl)amino]ethyl}thiourea] | ≤ 10 µM | –
20 | CN(CCNC(=S)Nc1ccc(Cl)cc1)CCNc1cc(N2CCOCC2)nc(N2CCOCC2)n1 [Example 66, N-(4-chlorophenyl)-N′-{2-[{2-[(2,6-dimorpholin-4-ylpyrimidin-4-yl)amino]ethyl}(methyl)amino]ethyl}thiourea] | ≤ 10 µM | –
21 | CCN(CC)CCCCCNc1cc(N2CCCC2)nc(N2CCCC2)n1 [Example 6, N′-(2,6-dipyrrolidin-1-ylpyrimidin-4-yl)-N,N-diethylpentane-1,5-diamine] | ≤ 10 µM | –
22 | CN(CCNC(=S)Nc1ccc(F)cc1F)CCNc1cc(N2CCCC2)nc(N2CCCC2)n1 [Example 40, N-(2,4-difluorophenyl)-N′-{2-[{2-[(2,6-dipyrrolidin-1-ylpyrimidin-4-yl)amino]ethyl}(methyl)amino]ethyl}thiourea] | ≤ 10 µM | –
23 | S=C(NCCCCCNc1cc(N2CCCC2)nc(N2CCCC2)n1)Nc1ccc(Cl)cc1 [Example 58, N-(4-chlorophenyl)-N′-{5-[(2,6-dipyrrolidin-1-ylpyrimidin-4-yl)amino]pentyl}thiourea] | ≤ 10 µM | –

— US20100137275A1 (IPSEN PHARMA S.A.S., priority 2007, published 2010)
